PubChem BioAssay AID743121 – NCATS | 2013
The whole screen tested about 26,000 reagents; this is a random part of them. Of all reagents, 167 (0.63%) were called active. 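Calls are per gene from RSA p-values that are not deposited; an individual active-marked siRNA can sensitise only weakly.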 Reagents against one gene are numbered here. Not all columns of the deposit are shown.

- Assay: 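Partners whose loss is lethal together with topoisomerase I blockade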 (primary screen)
- Cells: MDA-MB-231 cells, a human breast cancer line
- Reagents: single siRNA against human genes, 20 nM siRNA (0.8 pmol per well)
- Timing: 120 h (drug added 48 h after transfection, read 72 h later)
- Challenge: camptothecin 20 nM (about EC30) for 72 h; vehicle 0.1% DMSO in parallel plates
- Measured: 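CellTiter-Glo ATP signal, scaled to control siRNA as percent viability; sensitisation given as log2 of untreated divided by camptothecin-treated viability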
- Reading the numbers: log2 vehicle/camptothecin viability: higher = stronger sensitisation to camptothecin; viability with camptothecin: higher = more viable cells
- Units: viability with camptothecin in % of control
- Call rule: 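Active genes have an RSA gene-level p-value below 0.001, computed from the ratios of their separate siRNAs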

After knock-down of SSR2 #1 the results were log2 vehicle/camptothecin viability -0.0782; viability with camptothecin 79.2; inactive.
Knock-down of SSR2 #2 came out at: log2 vehicle/camptothecin viability 0.141; viability with camptothecin 113; inactive.
SSR2 #3 scored log2 vehicle/camptothecin viability -0.261; viability with camptothecin 86.6; inactive.
SSR2 #4 showed log2 vehicle/camptothecin viability 0.498; viability with camptothecin 47; inactive.
After knock-down of DNAAF10 #1 the results were log2 vehicle/camptothecin viability -0.0414; viability with camptothecin 75.5; inactive.
With knock-down of DNAAF10 #2, the screen gave log2 vehicle/camptothecin viability -0.305; viability with camptothecin 51.3; inactive.
DNAAF10 #3 gave log2 vehicle/camptothecin viability -0.637; viability with camptothecin 84.7; inactive.
DNAAF10 #4 scored log2 vehicle/camptothecin viability 0.13; viability with camptothecin 51.2; inactive.
For POLB #1, the entry reads log2 vehicle/camptothecin viability -0.452; viability with camptothecin 96.5; inactive.
Silencing of POLB #2 resulted in: log2 vehicle/camptothecin viability -0.164; viability with camptothecin 55.4; inactive.
Silencing of POLB #3 came out at: log2 vehicle/camptothecin viability -0.409; viability with camptothecin 19; inactive.
Silencing of POLB #4 resulted in: log2 vehicle/camptothecin viability -0.229; viability with camptothecin 102; inactive.
ERBB4 #1 gave log2 vehicle/camptothecin viability 0.537; viability with camptothecin 61.6; inactive.
Knock-down of ERBB4 #2 resulted in: log2 vehicle/camptothecin viability 0.451; viability with camptothecin 19; inactive.
With knock-down of ERBB4 #3 the results were log2 vehicle/camptothecin viability -0.343; viability with camptothecin 101; inactive.
With knock-down of ERBB4 #4, the record shows log2 vehicle/camptothecin viability -0.281; viability with camptothecin 107; inactive.
Against VHL #1, the values are log2 vehicle/camptothecin viability 0.231; viability with camptothecin 67.9; inactive.
VHL #2 gave log2 vehicle/camptothecin viability -0.263; viability with camptothecin 124; inactive.
VHL #3 showed log2 vehicle/camptothecin viability -0.209; viability with camptothecin 89.4; inactive.
For VHL #4 the deposit lists log2 vehicle/camptothecin viability 0.516; viability with camptothecin 54.3; inactive.
LGI1 #1 gave log2 vehicle/camptothecin viability -0.0947; viability with camptothecin 66.5; inactive.
With knock-down of LGI1 #2 the results were log2 vehicle/camptothecin viability -0.179; viability with camptothecin 70.1; inactive.
With knock-down of LGI1 #3, the screen gave log2 vehicle/camptothecin viability -0.35; viability with camptothecin 38.2; inactive.
Silencing of LGI1 #4 resulted in: log2 vehicle/camptothecin viability 0.149; viability with camptothecin 83.1; inactive.
For BCKDHA #1, the values are log2 vehicle/camptothecin viability -0.485; viability with camptothecin 79.8; inactive.
After knock-down of BCKDHA #2 the results were log2 vehicle/camptothecin viability 0.443; viability with camptothecin 50.3; inactive.
BCKDHA #3 scored log2 vehicle/camptothecin viability -0.29; viability with camptothecin 72.1; inactive.
After knock-down of BCKDHA #4 the results were log2 vehicle/camptothecin viability -0.322; viability with camptothecin 77.1; inactive.
Against EEF2K #1, the values are log2 vehicle/camptothecin viability -0.158; viability with camptothecin 71.3; inactive.
Depletion of EEF2K #2 came out at: log2 vehicle/camptothecin viability 0.197; viability with camptothecin 80.8; inactive.
After knock-down of EEF2K #3 the results were log2 vehicle/camptothecin viability -0.303; viability with camptothecin 83.5; inactive.
EEF2K #4 gave log2 vehicle/camptothecin viability 0.208; viability with camptothecin 58.4; inactive.
BMP3 #1 scored log2 vehicle/camptothecin viability -0.293; viability with camptothecin 51.9; inactive.
Silencing of BMP3 #2 came out at: log2 vehicle/camptothecin viability -0.345; viability with camptothecin 45.2; inactive.
For BMP3 #3, the values are log2 vehicle/camptothecin viability -0.161; viability with camptothecin 94.6; inactive.

Reprinted from the entries so far, 3 entries:
ERBB4 #3 — log2 vehicle/camptothecin viability: -0.343; viability with camptothecin: 101; outcome: inactive
ERBB4 #4 — log2 vehicle/camptothecin viability: -0.281; viability with camptothecin: 107; outcome: inactive
VHL #1 — log2 vehicle/camptothecin viability: 0.231; viability with camptothecin: 67.9; outcome: inactive
